No constants are given. Whether binding was seen depends on the method and setting. In cells and extracts the contact can be indirect. Binding calls can cover weak binding; strength is not graded here. Sequences can lack the tags named with a protein.

From PMC8080764 come the findings set out here.

For the assay, the target named is T1, 3xFlag-KDM2B (pCMV-3xFlag-KDM2B) (UniProt Q8NHM5).
T1 sequence: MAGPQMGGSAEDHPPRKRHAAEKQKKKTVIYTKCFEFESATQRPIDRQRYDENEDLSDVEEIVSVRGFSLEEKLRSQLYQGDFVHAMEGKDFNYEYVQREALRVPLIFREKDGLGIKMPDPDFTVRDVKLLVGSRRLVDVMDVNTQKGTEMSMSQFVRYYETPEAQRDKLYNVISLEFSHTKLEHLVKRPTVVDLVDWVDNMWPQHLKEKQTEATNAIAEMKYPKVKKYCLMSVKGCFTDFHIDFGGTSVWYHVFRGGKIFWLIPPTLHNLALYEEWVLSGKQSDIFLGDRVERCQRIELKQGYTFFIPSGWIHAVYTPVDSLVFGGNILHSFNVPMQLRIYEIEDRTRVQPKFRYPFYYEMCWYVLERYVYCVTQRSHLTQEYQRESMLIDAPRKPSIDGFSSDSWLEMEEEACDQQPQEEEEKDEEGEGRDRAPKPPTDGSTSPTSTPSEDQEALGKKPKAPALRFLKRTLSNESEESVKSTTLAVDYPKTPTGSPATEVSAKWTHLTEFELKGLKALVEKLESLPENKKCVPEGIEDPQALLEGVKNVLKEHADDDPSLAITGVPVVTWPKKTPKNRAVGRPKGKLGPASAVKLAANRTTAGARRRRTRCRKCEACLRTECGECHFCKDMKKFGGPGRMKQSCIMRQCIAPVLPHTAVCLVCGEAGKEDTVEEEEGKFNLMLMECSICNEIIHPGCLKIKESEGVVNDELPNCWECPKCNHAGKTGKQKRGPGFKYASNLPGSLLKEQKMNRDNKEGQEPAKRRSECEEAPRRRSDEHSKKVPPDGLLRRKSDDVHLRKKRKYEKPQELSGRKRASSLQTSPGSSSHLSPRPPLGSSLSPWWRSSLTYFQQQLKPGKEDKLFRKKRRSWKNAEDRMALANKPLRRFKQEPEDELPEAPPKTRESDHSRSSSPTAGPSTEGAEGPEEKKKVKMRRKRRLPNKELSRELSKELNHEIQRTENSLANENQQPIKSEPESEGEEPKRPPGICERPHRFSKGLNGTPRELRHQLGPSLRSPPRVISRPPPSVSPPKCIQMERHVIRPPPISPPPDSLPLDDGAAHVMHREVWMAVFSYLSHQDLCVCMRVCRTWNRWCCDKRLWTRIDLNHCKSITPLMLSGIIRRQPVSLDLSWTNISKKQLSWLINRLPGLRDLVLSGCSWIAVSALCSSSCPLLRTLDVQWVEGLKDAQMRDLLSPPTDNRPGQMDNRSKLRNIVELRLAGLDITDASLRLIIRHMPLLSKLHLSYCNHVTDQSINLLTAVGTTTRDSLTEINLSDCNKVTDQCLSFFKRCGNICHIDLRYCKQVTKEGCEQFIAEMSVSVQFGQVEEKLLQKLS
Kind of assay: co-IP; pCMV-3xFlag-KDM2B and pCGN-HA-SRF (full length or truncations) transfected into 293T cells (cell line of Fig. 3e not named); IP with anti-Flag (KDM2B), inverse IP by HA-SRF; 0.5% NP40 lysis buffer, overnight at 4 °C.

As to “SRF-AB (truncated SRF with the MADS-box) (domain or fragment)”, the binding entry is reported as “binds”.
